Assay in all cases: protein microarray (ProtoArray v5.0), streptavidin-Alexa Fluor 647
Holding throughout (settings): 3'-biotin; 20 mM Tris (pH 7.5), 5 mM MgCl2, 100 mM KCl, 0.1% Tween-20, A/T-rich and random oligonucleotide blockers; temperature not stated; high values mean tight binding

By UniProt entry, the sequences of proteins in these tests, tags left out.
UniProt Q16143, whole entry: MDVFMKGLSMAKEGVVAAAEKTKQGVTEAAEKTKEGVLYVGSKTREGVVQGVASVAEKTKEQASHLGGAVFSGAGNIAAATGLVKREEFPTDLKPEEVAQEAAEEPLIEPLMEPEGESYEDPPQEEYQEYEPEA

Experiment [1] concerns SMAD1 (human).
Experiment [2] relates to SMCP (human).
In experiment [3] the test system is SMPD3 (human).
Experiment [4] concerns SMR3B (human).
The subject of experiment [5] is SMUG1 (human).
Experiment [6] addresses T1, SNAPC5 (UniProt O75971).
T1 sequence: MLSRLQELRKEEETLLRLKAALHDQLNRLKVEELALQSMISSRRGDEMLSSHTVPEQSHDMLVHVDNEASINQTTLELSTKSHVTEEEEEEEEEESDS

Experiment [7] relates to SNCA (human).
In experiment [8] the target is SNCB (UniProt Q16143).
The subject of experiment [9] is SNX19 (human).
Experiment [10] relates to SOD1 (human).

This is one part of the list. For some of these results: The exact form of the protein is not confirmed.

Turning to “GGGGACAGGGGTATGGGGAGGGG [G4-3 biotinylated (CtG)]”, the binding signal is -0.331 z-score in experiment [1]; -0.327 z-score in experiment [2]; -0.319 z-score in experiment [3]; -0.314 z-score in experiment [4]; -0.313 z-score in experiment [5]; -0.331 z-score in experiment [6]. In addition, the binding signal in experiment [7] was -0.328 z-score; in experiment [8] it was -0.342 z-score; in experiment [9], -0.321 z-score; in experiment [10] it was -0.334 z-score.

The values are drawn from article PMC5996148.
